Measured data: PubChem BioAssay AID504774 (Drosophila RNAi Screening Center, 2011)
The deposit covers about 23,000 reagents; this is an unselected part of those with a known target gene and a result. 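Values are quantile-normalised luminescence on an arbitrary scale; higher means more cells surviving MMS.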 Names joined by + are all predicted targets of the reagent.

Assay: 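Knock-downs that shift viability of MMS-exposed cells relative to untreated ones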 (primary screen)
Cells: Drosophila Kc167 cells
Knock-down reagent: long dsRNA against Drosophila genes, about 0.25 µg dsRNA per well
Timing: about 6 days: 3 days knock-down, then 3 days with or without MMS
Treatment: methyl methanesulphonate 0.004% (w/v) for 3 days after knock-down
Read-out: 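ATP-dependent luminescence as a measure of live cells in MMS-exposed wells, quantile normalised within each plate, with replicate values also given as a mean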
Scale: mean viability with MMS and viability with MMS: higher = more surviving cells after MMS

| target | DRSC id | mean viability with MMS | viability with MMS, replicate 1 | viability with MMS, replicate 2 |
| --- | --- | --- | --- | --- |
| Wnt2 | DRSC05160 | 3.44e6 | 3.87e6 | 3.88e6 |
| Wnt2 | DRSC07574 | 3.53e6 | 3.97e6 | 4.04e6 |
| Fancl | DRSC14550 | 3.69e6 | 4.22e6 | 4.02e6 |
| CG32437 | DRSC11760 | 3.78e6 | 4.21e6 | 4.22e6 |
| CG32437 | DRSC22020 | 3.85e6 | 4.30e6 | 4.27e6 |
| CG8924 | DRSC20122 | 3.21e6 | 3.43e6 | 3.69e6 |
| CG8924 | DRSC23027 | 3.52e6 | 4.00e6 | 4.02e6 |
| DIP-kappa | DRSC01336 | 3.31e6 | 3.79e6 | 3.66e6 |
| DIP-kappa | DRSC01337 | 3.52e6 | 3.95e6 | 4.02e6 |
| CG11523 | DRSC11669 | 3.72e6 | 4.24e6 | 4.13e6 |
| CG12531 | DRSC19466 | 3.42e6 | 3.91e6 | 3.85e6 |
| CG16781 | DRSC18117 | 3.46e6 | 3.86e6 | 3.99e6 |
| dpr19 | DRSC02237 | 3.50e6 | 3.89e6 | 4.06e6 |
| CG33281 | DRSC00421 | 3.51e6 | 3.90e6 | 4.06e6 |
| CG42709 | DRSC10277 | 3.53e6 | 4.00e6 | 4.01e6 |
| CG17239 | DRSC00492 | 3.50e6 | 4.01e6 | 3.92e6 |
| CG13287 | DRSC09961 | 1.57e6 | 3.60e6 | – |
| CG10019 | DRSC00279 | 3.18e6 | 3.51e6 | 3.52e6 |
| Obp19a | DRSC20487 | 3.70e6 | 4.20e6 | 4.11e6 |
| Atx2 | DRSC15727 | 2.52e6 | 3.51e6 | 3.51e6 |
| Atx2 | DRSC23010 | 3.15e6 | 3.74e6 | 3.27e6 |
| Vha36-1 | DRSC07098 | 3.58e6 | 4.01e6 | 4.11e6 |
| CG30325 | DRSC05685 | 3.54e6 | 3.99e6 | 4.03e6 |
| CG15390 | DRSC00404 | 3.53e6 | 4.03e6 | 3.98e6 |
| BRWD3 | DRSC15369 | 3.38e6 | 3.80e6 | 3.86e6 |
| BRWD3 | DRSC16032 | 3.37e6 | 3.75e6 | 3.80e6 |
| CG3081 | DRSC18571 | 3.71e6 | 4.34e6 | 4.09e6 |
| p120ctn | DRSC07753 | 3.54e6 | 4.05e6 | 3.96e6 |
| mRpL21 | DRSC11100 | 3.66e6 | 4.20e6 | 4.06e6 |
| CG7135 | DRSC20026 | 3.55e6 | 4.08e6 | 3.99e6 |
| Prosbeta3 | DRSC16801 | 3.23e6 | 3.72e6 | 3.70e6 |
| CG42615 | DRSC05121 | 3.51e6 | 3.94e6 | 4.02e6 |
| CG1622 | DRSC19745 | 3.59e6 | 4.11e6 | 4.00e6 |
| Nmdar1 | DRSC12071 | 3.84e6 | 4.17e6 | 4.36e6 |
| Nmdar1 | DRSC12356 | 3.77e6 | 4.30e6 | 4.19e6 |
| asRNA:Eig63F-2 + Eip63F-1 | DRSC21446 | 3.58e6 | 4.01e6 | 4.12e6 |
| pic | DRSC16639 | 3.42e6 | 3.83e6 | 3.88e6 |
| CG18808 | DRSC08539 | 3.61e6 | 4.20e6 | 4.01e6 |
| Mur89F | DRSC15544 | 3.46e6 | 3.93e6 | 3.90e6 |
| RpL5 | DRSC03801 | 2.94e6 | 3.64e6 | 3.59e6 |
| blw | DRSC04675 | 3.33e6 | 3.73e6 | 3.73e6 |
| CG34047 (retired record) | DRSC07857 | 3.79e6 | 4.11e6 | 4.36e6 |
| CG34047 (retired record) | DRSC21689 | 3.58e6 | 4.00e6 | 4.12e6 |
| wde | DRSC05955 | 3.50e6 | 3.94e6 | 3.97e6 |
| alpha-Est2 | DRSC12614 | 3.57e6 | 4.11e6 | 3.99e6 |
| Cpr49Ah | DRSC07204 | 3.46e6 | 3.79e6 | 4.16e6 |
| Smg5 | DRSC03124 | 3.37e6 | 3.60e6 | 3.96e6 |
| CG11019 (retired record) | DRSC02117 | 3.51e6 | 3.85e6 | 4.10e6 |
| CG31300 | DRSC14657 | 3.46e6 | 3.96e6 | 3.87e6 |
| Paics | DRSC20305 | 3.64e6 | 4.32e6 | 4.27e6 |
| loco | DRSC15202 | 3.73e6 | 4.21e6 | 4.23e6 |
| loco | DRSC16989 | 3.48e6 | 3.94e6 | 3.94e6 |
| CG6567 + CG42394 | DRSC22241 | 3.47e6 | 3.87e6 | 4.02e6 |
| dpr5 | DRSC15766 | 3.64e6 | 4.04e6 | 4.13e6 |
| alpha-Est7 | DRSC12619 | 1.93e6 | 4.08e6 | 4.09e6 |
| CG18063 | DRSC01968 | 3.47e6 | 3.92e6 | 3.96e6 |
| Gr32a | DRSC02400 | 3.59e6 | 4.11e6 | 4.04e6 |
| Yp2 | DRSC18732 | 3.56e6 | 4.07e6 | 4.19e6 |
| Or13a | DRSC20265 | 3.44e6 | 3.96e6 | 3.83e6 |
| CG16896 | DRSC04284 | 3.27e6 | 2.97e6 | 3.85e6 |
| Cpr64Ab | DRSC08461 | 3.48e6 | 3.90e6 | 4.00e6 |
| CG15056 | DRSC19630 | 3.48e6 | 3.85e6 | 4.04e6 |
| Cox10 | DRSC02804 | 3.43e6 | 3.86e6 | 3.86e6 |
| CG2269 | DRSC06833 | 3.65e6 | 4.17e6 | 4.12e6 |
| fru | DRSC16951 | 2.95e6 | 3.62e6 | 3.60e6 |
| fru | DRSC16952 | 3.80e6 | 3.55e6 | 3.54e6 |
| fru | DRSC16953 | 3.62e6 | 3.99e6 | 3.93e6 |
| fru | DRSC21600 | 3.33e6 | 3.85e6 | 3.81e6 |

6 entries already listed, arranged by “mean viability with MMS”, low to high:
| target | DRSC id | mean viability with MMS | viability with MMS, replicate 1 | viability with MMS, replicate 2 |
| --- | --- | --- | --- | --- |
| Smg5 | DRSC03124 | 3.37e6 | 3.60e6 | 3.96e6 |
| Cpr49Ah | DRSC07204 | 3.46e6 | 3.79e6 | 4.16e6 |
| CG31300 | DRSC14657 | 3.46e6 | 3.96e6 | 3.87e6 |
| CG11019 (retired record) | DRSC02117 | 3.51e6 | 3.85e6 | 4.10e6 |
| alpha-Est2 | DRSC12614 | 3.57e6 | 4.11e6 | 3.99e6 |
| Paics | DRSC20305 | 3.64e6 | 4.32e6 | 4.27e6 |
